According to PubChem BioAssay AID2685 (National Center for Advancing Translational Sciences (NCATS), 2010):
Hit rate of the full screen: of about 320,000 compounds, about 2,100 (0.66%) were called active. Inconclusive means that the source gave no clear call. Such entries were picked first, then a sample of the others. Calls come from the whole dose curve; as a rule, active = well fitted inhibition curve with a large enough effect in the signal ratio, with a control signal flat (not every such curve was filed as active); inconclusive = small, poorly fitted or top-dose-only effect, or effect the other way, or a change in a side signal; inactive = flat fitted curve, though single readings scatter; the % refers to the signal ratio. Where the call is inconclusive, the potency comes from a doubtful curve fit.

Assay: qHTS Assay for Lipid Storage Modulators in Drosophila S3 Cells
Details: BODIPY lipid droplet fluorescence, 18-24 h, cells fed with added oleic acid; lipid storage change, negative = inhibition: at 46.1 µM (top of the series) unless noted
How it was run: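 Laser-scanning cytometry quantifies lipid droplet accumulation (500–530 nm total intensity; droplet/cell object ratio) in oleic acid-fed (400 uM added) Drosophila S3 cells treated with a concentration series. 20 uM Triacsin C defined 100% inhibition.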
% is set by controls: 0 for no effect and ±100 for the full control effect; potency is the fitted concentration of half-maximal effect.

SMILES	lipid storage change, negative = inhibition	Potency
Cc1ccc(NC2OC(CO)C(O)C(O)C2O)cc1 (stereo not given)	inactive	
CC(NC(=O)CSc1nc2ccccc2n1C)c1ccccc1 (stereo not given)		inconclusive: 0.92 µM [activator, full curve, poor fit]
Cc1ccc(Cn2cnc3c(cnn3C(C)(C)C)c2=O)cc1	inconclusive: -10%	
N#Cc1cnn(-c2ccccc2)c1NC(=O)c1ccccc1F		inconclusive: 2.91 µM [activator, partial curve]
O=[N+]([O-])c1ccc(C2CC(c3ccccc3)=Nc3ccccc3S2)cc1 (stereo not given)		inconclusive: 18.4 µM [cytotoxic, single point]
Cc1cccc(N2CCN(C(=O)CNC(=O)c3cccc([N+](=O)[O-])c3)CC2)c1C	inconclusive: 30%	
Cc1ccc(NC(=O)CSC2=C(C#N)C(c3ccc4c(c3)OCO4)C3=C(CCCC3=O)N2)c(C)c1 (stereo not given)		inconclusive: 23.1 µM [rising, partial curve]
O=C(NCc1ccccc1)c1ccc(NC(=O)c2ccccc2F)cc1	inconclusive: 26.7%	
O=S(=O)(c1ccc(Cl)s1)N1CCC2(CC1)OCCO2	inconclusive: -100%	
Cc1ccc(SCCC(=O)N2CCOCC2)cc1	inconclusive: -35.4%	
Cc1c(NC(=O)COC(=O)C2(c3ccc(F)cc3)CCCC2)c(=O)n(-c2ccccc2)n1C	inconclusive: 99.1%	
O=C(N/N=C/c1cccc(OC(=O)c2ccc([N+](=O)[O-])cc2)c1)c1cccnc1		inconclusive: 5.8 µM [activator, full curve]
CCCCOc1ccc(CN(C)c2ncnc(N)n2)cc1	inconclusive: -1.49%	
O=C(Nc1ccc(Br)cc1)C1CC=CCC1C(=O)OCC1CCCO1 (stereo not given)		inconclusive: 16.4 µM [rising, partial curve]
O=C(CCN1C(=O)/C(=C/c2cccs2)SC1=S)Nc1ccccc1O		active: 3.66 µM
Cc1ccc(C(=O)Nc2nc(=O)n(C(=O)c3ccccc3Cl)s2)cc1	inconclusive: 100%	
CC(NC(=O)C(C)N1C(=O)c2ccccc2C1=O)c1ccccc1 (stereo not given)		inconclusive: 8.2 µM [falling, partial curve, poor fit]
S=C(NCCCN1CCOCC1)Nc1ccc(Cl)cc1Cl		inconclusive: 0.0731 µM [activator, full curve, poor fit]
O=C(C[n+]1ccc(CCSc2ccc(F)cc2)cc1)c1ccccc1	inconclusive: 20.8%	
CN1C2CCC1CC(NC(=O)CSc1ccc(Cl)cc1)C2 (stereo not given)	inconclusive: -12.4%	
CCOc1cccc(/C=N/NC(=O)c2ccc3c(c2)OCCO3)c1O		inconclusive: 29.1 µM [falling, single point]
O=C(Oc1c(Cl)cc(Cl)c2cccnc12)c1cccc([N+](=O)[O-])c1		inconclusive: 20.6 µM [falling, single point]
Cc1cc(C)nc(SCCC(=O)N(C)C)n1		inconclusive: 0.651 µM [activator, full curve, poor fit]
Cc1ccc(C(=O)NC(=S)Nc2ccc(S(=O)(=O)N3CCN(C)CC3)cc2)cc1	inconclusive: -10.9%	
CCn1nc(C)c(CNC(=O)C2CCC(=O)N(CCc3ccc(OC)cc3)C2)c1C (stereo not given)		inconclusive: 0.731 µM [falling, full curve, poor fit]

SMILES	lipid storage change, negative = inhibition	Potency
Fc1ccc2c(c1)C(c1ccncc1)=NNC(c1cccnc1)=N2		inconclusive: 23.1 µM [falling, single point]
O=C(NNC(=O)c1cc(F)c(F)cc1Cl)c1ccc(NS(=O)(=O)c2cccs2)cc1	inconclusive: -31%	
N=C1C(c2nc(-c3ccc(Cl)cc3)cs2)=C(O)CN1CCCN1CCOCC1		inconclusive: 2.59 µM [activator, partial curve]
CN1CCN(c2ccc(NC(=O)COc3ccccc3[N+](=O)[O-])cc2)CC1	inconclusive: 13.5%	
CCn1c2ccccc2c2cc(/C(C)=N/O)ccc21	inconclusive: -7.67%	
O=P(O)(C(O)c1ccccc1)C(O)c1ccccc1 (stereo not given)	inconclusive: 33.3%	
Cc1cc(C)cc(OC(C)C(=O)NCCCn2ccnc2)c1 (stereo not given)	inconclusive: 0.961%	
CCOc1ccc(NC(=S)NC23CC4CC(CC(C4)C2)C3)cc1		inconclusive: 14.6 µM [activator, partial curve]
CCc1ccc(N(CC(=O)NC2CCCC2)S(=O)(=O)c2c(C)noc2C)cc1	inconclusive: 21.2%	
O=C(CCCSc1nc2ccccc2[nH]1)NCc1ccccc1		inconclusive: 8.2 µM [falling, partial curve]
Cn1c(SCc2ccc(Br)cc2)nc2c(c1=O)SCC2	inconclusive: 17.7%	
CCCOc1ccc(/C(CC)=N/NC(=O)C2(C)CC2(Br)Br)cc1 (stereo not given)		inconclusive: 0.231 µM [activator, full curve, poor fit]
CCC(=NC(CC)CO)C1=C(O)CC(C)(C)CC1=O (stereo not given)	inconclusive: -58.2%	
Cc1cc(NC(=O)COC(=O)C2CC(=O)N(c3ccc(C)c(Cl)c3)C2)no1 (stereo not given)	inconclusive: 41.3%	
CN(C(=O)COC(=O)C1=COCCO1)C1(C#N)CCCCC1		inconclusive: 0.82 µM [activator, full curve, poor fit]
CCN(CC)CCN(Cc1cc2cc3c(cc2[nH]c1=O)OCO3)C(=S)NCCCN(C)C	inconclusive: 8.46%	
Cc1cccc2cc(CN(Cc3ccco3)C(c3nnnn3CCc3ccccc3)C(C)C)c(=O)[nH]c12 (stereo not given)	inconclusive: 38.7%	
Cn1cnnc1SCC(=O)NC1CCCN(Cc2ccc(Cl)cc2)C1 (stereo not given)	inconclusive: 31.6% [at 0.00295 µM]	
Cc1ccc(C)c2c1cc(C)c1nnc(SCC(=O)Nc3nc4c(s3)CCCC4)n12	inconclusive: 2.87%	
O=C(NCc1ccc(F)cc1)c1cc(C(=O)C2CC2)c[nH]1	inconclusive: -38.4%	
Cc1cc(C(=O)CN2CC(C)OC(C)C2)c(C)n1-c1ccccc1 (stereo not given)	inconclusive: 14.4%	
CCCCn1c(N)c(N(CCOC)C(=O)CSCc2ccc(Cl)c(Cl)c2)c(=O)[nH]c1=O		inconclusive: 4.61 µM [activator, partial curve]
Cc1ccccc1C(=O)N=c1ccn(-c2nc3ccccc3nc2NS(=O)(=O)c2ccccc2)cc1	inconclusive: -88.4%	
Cc1ccc2nc(C3CCN(C(=O)NCc4ccccc4)CC3)[nH]c2c1	inconclusive: 31.3%	
Cc1ccn2c(=O)nc(SCC(=O)NCc3ccccc3Cl)nc2c1	inconclusive: 26.1%	

Nothing new here: an excerpt of the list.
SMILES	lipid storage change, negative = inhibition	Potency
CCC(=NC(CC)CO)C1=C(O)CC(C)(C)CC1=O (stereo not given)	inconclusive: -58.2%	
Cc1cc(NC(=O)COC(=O)C2CC(=O)N(c3ccc(C)c(Cl)c3)C2)no1 (stereo not given)	inconclusive: 41.3%	
CN(C(=O)COC(=O)C1=COCCO1)C1(C#N)CCCCC1		inconclusive: 0.82 µM [activator, full curve, poor fit]
CCN(CC)CCN(Cc1cc2cc3c(cc2[nH]c1=O)OCO3)C(=S)NCCCN(C)C	inconclusive: 8.46%	
Cc1cccc2cc(CN(Cc3ccco3)C(c3nnnn3CCc3ccccc3)C(C)C)c(=O)[nH]c12 (stereo not given)	inconclusive: 38.7%	
Cn1cnnc1SCC(=O)NC1CCCN(Cc2ccc(Cl)cc2)C1 (stereo not given)	inconclusive: 31.6% [at 0.00295 µM]	

(further entries)

SMILES	lipid storage change, negative = inhibition	Potency
c1cnc(Sc2ccc3nnnn3n2)nc1	inconclusive: 6.03%	
COc1ccc(C)cc1NC(=O)c1cc2ccccc2o1		inconclusive: 5.8 µM [activator, partial curve]
O=C(c1cc(=O)[nH]c2ccccc12)N1CCN(c2cccc(C(F)(F)F)c2)CC1	inconclusive: 12.8%	
Cc1ccc(C(=O)NCCNC(=O)c2cnccn2)cc1	inconclusive: -37.6%	
Cc1cccc(C)c1NC(=O)CN(C)C(=O)C1CC1C (stereo not given)		inconclusive: 1.16 µM [activator, full curve, poor fit]
O=C(O)c1nnn(-c2cc(C(F)(F)F)cc(C(F)(F)F)c2)c1-c1ccccc1		inconclusive: 29.1 µM [cytotoxic, single point]
Nc1nnc(SCc2ccc(F)cc2Cl)s1		inconclusive: 25.9 µM [activator, single point]
CCN(CC(=O)Nc1ccc2c(c1)CCC2)Cc1nc2ccccc2c(=O)[nH]1	inconclusive: 42.4%	
O=C(CN1CCN(c2ccccc2)CC1)NC(=O)NCc1ccccc1	inconclusive: 8.37%	
CN(C)CCCOC(=O)COc1ccc(C(C)(C)C)cc1	inconclusive: -0.0788%	
CCOc1cc(S(=O)(=O)NCc2ccco2)c(OCC)cc1-n1cnnn1	inconclusive: 27.5%	
C=CCn1c(C)cc(C(=O)COC(=O)c2ccc(N)c([N+](=O)[O-])c2)c1C	inactive	
CC(OC(=O)c1cccc(-n2cnnn2)c1)C(=O)NC1(C#N)CCCCC1 (stereo not given)	inconclusive: 7.11%	
CN(C)CCCNC(=O)c1cc2sc3ccccc3c2s1		inconclusive: 16.4 µM [activator, single point]
Cc1ccn(C(=O)c2ccc(NC(=O)C3CC3)cc2)n1		inconclusive: 9.2 µM [activator, single point]
O=C(O)c1nccnc1C(=O)Nc1ccc(Cl)cn1		inconclusive: 2.59 µM [activator, partial curve, poor fit]
Cc1ccc(CSCC(=O)N(C)CC(=O)Nc2cccc(F)c2)cc1	inconclusive	
O=C(O)c1ccc(N2C(=O)C3C4c5ccccc5C(Br)(c5ccccc54)C3C2=O)cc1 (stereo not given)	inconclusive: -24.8%	
COc1cc(CN2CCC(C(=O)NC3CCCC3)CC2)cc(OC)c1O		inconclusive: 7.31 µM [falling, partial curve, poor fit]
C[N+](C)(C)CCOP(=O)([O-])OC[C@H](O)CO	inconclusive: -15.2%	
Cc1ccc(C(O)c2nc3ccccc3n2C(C)C)cc1 (stereo not given)		inconclusive: 29.1 µM [activator, single point]
CC(=O)Nc1cccc(C(=O)OCC(=O)NC2CCCCCCC2)c1		inconclusive: 29.1 µM [activator, single point]
COc1ccc(CNC(=O)c2ccc(CS(=O)c3ccccc3)o2)cc1 (stereo not given)		inconclusive: 29.1 µM [activator, single point]
COc1ccc(CNc2ncnc3sccc23)cc1OC	inconclusive: -100%	
CC1(C)CC(=O)C2=C(C1)N(Cc1ccccc1)C(=O)C2(NC(=O)C(C)(C)C)C(F)(F)F (stereo not given)	inconclusive: -21.6%	
